In PMC11333582:
Results are given in words; binding and its absence hold for the method and conditions named. Binding seen in cells or lysates may run through a third protein. A yes stands for co-enrichment or nearness to the bait. Other partners may have been found.

Sequences of proteins named here, by UniProt entry; tags and fusion partners are left off. Residues count along the entry.
UniProt P52480: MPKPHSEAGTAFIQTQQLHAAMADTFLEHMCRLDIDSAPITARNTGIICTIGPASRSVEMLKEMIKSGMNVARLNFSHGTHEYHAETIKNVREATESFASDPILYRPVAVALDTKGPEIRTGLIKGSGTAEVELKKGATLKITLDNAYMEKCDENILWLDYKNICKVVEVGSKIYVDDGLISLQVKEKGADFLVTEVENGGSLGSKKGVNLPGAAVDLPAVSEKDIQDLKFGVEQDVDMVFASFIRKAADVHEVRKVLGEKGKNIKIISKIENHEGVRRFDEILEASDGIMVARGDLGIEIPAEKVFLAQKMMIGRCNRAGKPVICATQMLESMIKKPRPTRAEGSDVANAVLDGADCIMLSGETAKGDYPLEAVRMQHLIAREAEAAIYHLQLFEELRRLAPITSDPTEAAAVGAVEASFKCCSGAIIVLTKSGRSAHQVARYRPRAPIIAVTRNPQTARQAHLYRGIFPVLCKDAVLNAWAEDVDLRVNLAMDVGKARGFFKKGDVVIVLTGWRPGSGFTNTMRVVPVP
UniProt Q9Z2W9, residues 23-888: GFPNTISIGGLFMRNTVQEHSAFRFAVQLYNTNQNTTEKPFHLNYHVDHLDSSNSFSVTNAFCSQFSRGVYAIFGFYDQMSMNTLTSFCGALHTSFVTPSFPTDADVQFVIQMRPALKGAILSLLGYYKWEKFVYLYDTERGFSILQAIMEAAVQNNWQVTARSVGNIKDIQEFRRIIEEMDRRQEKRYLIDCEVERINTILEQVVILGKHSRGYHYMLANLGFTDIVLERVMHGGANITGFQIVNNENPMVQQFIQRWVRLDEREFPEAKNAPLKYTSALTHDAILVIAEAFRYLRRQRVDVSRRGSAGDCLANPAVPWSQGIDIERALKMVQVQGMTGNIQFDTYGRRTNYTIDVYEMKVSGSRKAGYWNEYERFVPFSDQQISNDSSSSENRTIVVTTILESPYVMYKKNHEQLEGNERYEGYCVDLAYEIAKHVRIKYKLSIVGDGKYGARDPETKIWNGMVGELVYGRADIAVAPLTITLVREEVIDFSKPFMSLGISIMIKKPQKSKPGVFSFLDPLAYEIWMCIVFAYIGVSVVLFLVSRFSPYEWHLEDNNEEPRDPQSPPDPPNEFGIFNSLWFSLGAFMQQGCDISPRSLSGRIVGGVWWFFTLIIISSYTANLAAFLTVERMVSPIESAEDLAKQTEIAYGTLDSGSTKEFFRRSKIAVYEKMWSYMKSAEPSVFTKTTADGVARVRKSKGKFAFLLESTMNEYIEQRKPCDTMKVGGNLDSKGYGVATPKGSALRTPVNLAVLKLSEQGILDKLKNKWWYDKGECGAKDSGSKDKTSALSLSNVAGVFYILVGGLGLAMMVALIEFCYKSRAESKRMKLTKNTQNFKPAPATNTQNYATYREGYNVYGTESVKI
UniProt Q01097, residues 27-1482: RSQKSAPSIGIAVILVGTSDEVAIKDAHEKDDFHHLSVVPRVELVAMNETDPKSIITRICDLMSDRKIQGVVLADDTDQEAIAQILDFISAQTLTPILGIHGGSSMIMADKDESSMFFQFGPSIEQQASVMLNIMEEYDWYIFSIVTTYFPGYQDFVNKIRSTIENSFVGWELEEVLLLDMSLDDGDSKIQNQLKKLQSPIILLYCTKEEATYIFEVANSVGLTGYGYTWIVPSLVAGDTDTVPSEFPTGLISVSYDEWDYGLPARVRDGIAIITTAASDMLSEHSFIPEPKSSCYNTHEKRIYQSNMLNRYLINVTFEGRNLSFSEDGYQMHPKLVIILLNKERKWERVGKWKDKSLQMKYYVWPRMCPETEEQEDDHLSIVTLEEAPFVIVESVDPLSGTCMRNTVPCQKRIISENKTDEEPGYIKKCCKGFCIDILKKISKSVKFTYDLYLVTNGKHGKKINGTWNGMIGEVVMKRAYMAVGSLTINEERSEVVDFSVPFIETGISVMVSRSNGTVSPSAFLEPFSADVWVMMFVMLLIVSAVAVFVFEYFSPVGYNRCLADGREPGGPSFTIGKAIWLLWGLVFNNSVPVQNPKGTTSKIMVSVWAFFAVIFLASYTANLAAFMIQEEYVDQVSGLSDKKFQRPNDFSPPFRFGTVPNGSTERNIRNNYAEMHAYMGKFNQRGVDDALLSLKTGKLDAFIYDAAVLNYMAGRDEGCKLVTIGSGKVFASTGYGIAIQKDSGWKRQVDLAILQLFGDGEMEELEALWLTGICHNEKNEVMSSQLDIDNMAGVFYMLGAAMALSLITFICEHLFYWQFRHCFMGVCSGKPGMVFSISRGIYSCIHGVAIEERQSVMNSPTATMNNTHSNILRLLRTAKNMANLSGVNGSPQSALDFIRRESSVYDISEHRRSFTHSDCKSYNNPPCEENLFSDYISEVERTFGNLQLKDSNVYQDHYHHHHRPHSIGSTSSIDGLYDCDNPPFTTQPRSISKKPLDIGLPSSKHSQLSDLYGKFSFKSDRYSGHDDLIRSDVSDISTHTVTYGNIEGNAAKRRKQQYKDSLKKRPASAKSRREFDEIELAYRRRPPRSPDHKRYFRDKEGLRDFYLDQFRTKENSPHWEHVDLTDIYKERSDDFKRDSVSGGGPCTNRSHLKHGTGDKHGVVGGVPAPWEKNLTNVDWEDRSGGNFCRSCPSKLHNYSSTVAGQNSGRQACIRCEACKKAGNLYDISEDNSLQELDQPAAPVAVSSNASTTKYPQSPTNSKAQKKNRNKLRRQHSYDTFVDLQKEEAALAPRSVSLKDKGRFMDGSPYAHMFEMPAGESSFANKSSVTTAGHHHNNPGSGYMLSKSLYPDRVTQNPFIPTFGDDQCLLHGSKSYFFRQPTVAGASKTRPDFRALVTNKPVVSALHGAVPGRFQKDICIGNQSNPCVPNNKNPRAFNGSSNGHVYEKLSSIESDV

Molecular target: Pkm2 (mouse (endogenous in mPFC)) (UniProt P52480)
Assay: affinity purification with mass spectrometry; immunoprecipitation with anti-Pkm2 antibody (1:50, overnight) from PSD extracts of mouse mPFC (methods: cerebral cortex in RIPA lysis buffer); rabbit IgG as negative IP control; SDS-PAGE bands cut, LC-MS (Q Exactive Plus, MaxQuant)

binding	Substance
binds	GluA3 (from UniProt Q9Z2W9 23-888) (receptor)
binds	Nr2b (from UniProt Q01097 27-1482) (receptor)
